According to paper PMC11715466:
No constants are given. Whether binding was seen depends on the method and setting. Binding seen in cells or lysates may run through a third protein. Some entries that bind do so weakly or less than the wild type.

Sequences of proteins named here, by UniProt entry; tags and fusion partners are left off.
UniProt O54857: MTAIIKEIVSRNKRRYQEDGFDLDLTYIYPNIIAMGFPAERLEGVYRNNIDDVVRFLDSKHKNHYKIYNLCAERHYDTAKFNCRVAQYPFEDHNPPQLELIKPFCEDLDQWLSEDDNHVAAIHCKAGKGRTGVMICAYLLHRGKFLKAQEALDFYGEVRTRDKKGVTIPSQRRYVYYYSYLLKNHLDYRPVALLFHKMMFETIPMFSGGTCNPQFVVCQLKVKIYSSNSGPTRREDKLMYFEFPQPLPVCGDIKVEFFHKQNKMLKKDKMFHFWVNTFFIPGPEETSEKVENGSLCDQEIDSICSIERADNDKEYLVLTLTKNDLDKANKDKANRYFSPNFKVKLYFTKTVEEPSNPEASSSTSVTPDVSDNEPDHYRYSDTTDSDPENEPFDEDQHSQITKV

Molecular target: Phosphatase and Tensin Homolog (rat (endogenous in PC12)) (UniProt O54857)
Assay: co-IP; Q74 PC12 cell lysate incubated overnight at 4 °C with antibody cross-linked to AminoLink coupling resin; eluate analysed by western blot

binding: binds
B1: Ubiquitin specific peptidase 11 (enzyme, UniProt Q5D006 1-921)
chain: MAAVAADPAAAAVPASAEDRETQPEAMPDLDQQWRQIGNGRERPLRAGESWFLVEKHWYKQWEAYVKGGDQDASTFPGSINNSGLFEDQISWHLRERLVEGDDYVLLPAPAWNYLVSWYGLKDDQPPIERKVIELPGIRKVEVYPIELLLVQHSDMETALTIQFSYSDSVDLVLQTAREQFLVEPQEDTRLWTKNSEGSLDRLCNTQITLLDACLETGQLVIMETRNKDGTWPSAQLCGMNNMPDEDEDFQGQPGICGLTNLGNTCFMNSALQCLSNVPQLTEYFLNNRYLEELNFRNPLGMKGELAEAYADLVKQTWSGYHRSIVPNVFKNKVGHFASQFLGYQQHDSQELLSFLLDGLHEDLNRVKKKEYVELCNGAGRPDLEVAQEAWQNHKRRNDSVIVDTFHGLFKSTLVCPDCGNVSVTFDPFCYLSVPLPVCSRRVLEVFFVPMDPRRKPEQHRVVVPKKGNISDLCVALSTHTSVAPDKMIVADVFSHRFYKLYQLEDPLSGILDRDDIFVYEVTGRIEPVEGSRDDIVVPVYLRERTPSRDYNNSYYGLILFGHPLLVSVPRDRFSWEGLYNILMYRLSRYVTKPTSDDDDGDEKGDENEDEDVEDDSSSEEEKEEMSGPTDNDGTQESEQEQAGTSSGVTGRCPSLLDNSLHTSQWPPRRRRKQLFTLQTVNSNGTSDRTTSPEEAQTQPYIAMDWEPEMKRRYYDEVEAEGYVKHDCVGYMLKKNPVQLKECIKLFTTVETLEKENPWYCSSCKQHQLATKKLDLWMLPEVLIIHLKRFSFSKFSREKLDTLVQFPIRDLDFSEFVIKPKNESAPDLYKYDLIAVSNHYGGMRDGHYTTFACNKDSGQWHYFDDNSVSPVNENQIESKAAYVLFYQRQDVGRRQSQTASSETPTSPASSSTPNSDIMDVN
